From PubChem BioAssay AID1347076 (National Center for Advancing Translational Sciences (NCATS), 2019)
Where “and” joins values, the source holds several entries; their conditions need not be identical. Equal values may be shown once. About 13,000 (3.2%) of roughly 400,000 compounds were called active. Inconclusive results, whose numbers are uncertain, are shown with a selection of clear calls. Calls follow the shape of the dose curve; as a rule, active = well fitted cell-killing curve with a large enough effect; inconclusive = small, poorly fitted or top-dose-only effect, or effect the other way; inactive = flat fitted curve, though single readings scatter. A potency beside an inconclusive call is a rough fit, not a confirmed value.

Test: qHTS assay for MDR1-selective chemotherapeutics: Primary screen using the drug-selected MDR subline cells KB-V1; also: nearly all actives have a fitted effect of over 60% in size
Details: KB-V1 MDR cells viability, CellTiter-Glo, 72 h; activity change, negative = cytotoxicity: at 46.1 µM (top of the series)
Summary of the method: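 In this primary screen, KB-V1 cells overexpressing P-gp are incubated with library compounds (lowest to highest concentration) for 72 h at 37 degrees C before a luminescent ATP viability read.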
% is scaled to controls: 0 for no effect and ±100 for the full control effect; potency is read from the fitted curve at half-maximal effect.

Q: With `OC(c1ccccc1)c1ccncc1` (stereo unspecified) as the compound, how does the “activity change, negative = cytotoxicity” value read?
A: The value was inactive: -1.65%.

Q: With `CC(C)(C)C1CCc2onc(C(=O)NC3CCCC3)c2C1` (stereo unspecified) as the compound, how does the Potency read?
A: The Potency was active: 16.4 µM.

Q: With `O=C(NCc1cccc(F)c1)C1CCC(=O)N(C2CC2)C1` (stereo unspecified) as the compound, how does the Potency read?
A: The Potency was inconclusive: 29.1 µM [rising, single point].

Q: Which Potency does the source give for `COc1cc(NC(=O)C23CC4CC(C2)CC(n2cnc([N+](=O)[O-])n2)(C4)C3)cc(OC)c1` here?
A: Its Potency is active: 20.6 µM.

Q: With `CCCc1ccc(OC(C)c2nc(-c3ccc(-n4cccc4)cc3)no2)cc1` (stereo unspecified) as the compound, how does the “activity change, negative = cytotoxicity” value read?
A: The value was inactive: 0.256%.

Q: For `O=C1CC(N2CCN(C/C=C/c3ccccc3)CC2)C(=O)N1Cc1ccc(N2CCCC2=O)cc1` (stereo unspecified), which Potency is on record?
A: The Potency was active: 10.3 µM.

Q: For `O=C(CCNS(=O)(=O)c1ccccc1F)N1CCN(C(c2ccccc2)c2ccccc2)CC1`, which Potency is on record?
A: The Potency was active: 8.2 µM.

Q: Which Potency does the source give for `Cc1cc(Nc2ccc(O)cc2)ccc1N` here?
A: Its Potency is inconclusive: 0.0366 µM [rising, full curve, poor fit].

Q: With `N#Cc1cccc(NC(=O)c2cc(C3CCCCN3C(=O)CCCc3ccccc3)on2)c1` (stereo unspecified) as the compound, how does the “activity change, negative = cytotoxicity” value read?
A: Its value is inactive: -1.69%.

Q: Which “activity change, negative = cytotoxicity” value does the source give for `COC(C(=O)N1CCC(n2nccc2NC(=O)C2CC2)CC1)c1ccccc1` (stereo unspecified) here?
A: Its value is inactive: 7.83%.

Q: With `COc1cc(/C=N/Nc2nncn2N)ccc1OCc1c(C)no[n+]1[O-]` as the compound, how does the Potency read?
A: Its Potency is inconclusive: 0.0073 µM [cytotoxic, full curve, poor fit].

Q: With `COc1ccc(CCNC(=O)CCC(=O)Nc2nnc(C(C)C)s2)cc1OC` as the compound, how does the “activity change, negative = cytotoxicity” value read?
A: Its value is inactive: 0%.

Q: For `Cc1ccc(C(=O)C(OC(=O)c2cnccn2)c2ccccc2)cc1` (stereo unspecified), which Potency is on record?
A: The Potency was inconclusive: 3.66 µM [rising, partial curve, poor fit].

Q: For `CCOC(=O)c1cc(S(=O)(=O)NCc2ccc(OC)cc2)[nH]n1`, which “activity change, negative = cytotoxicity” value is on record?
A: The value was inactive: -19.2%.

Q: Which Potency does the source give for `Cc1oc2ccc(OC(=O)N3CCOCC3)cc2c1C(=O)OC(C)C` here?
A: The Potency was inconclusive: 9.2 µM [cytotoxic, partial curve].

Q: Which Potency does the source give for `CCOC(=O)C1Cc2c([nH]c3ccccc23)C(C)N1` (stereo unspecified) here?
A: The Potency was inconclusive: 5.8 µM [rising, partial curve].

Q: Which “activity change, negative = cytotoxicity” value does the source give for `COc1ccc(C(=O)NC2CCCCCC2)cc1S(=O)(=O)N1CCCc2ccccc21` here?
A: Its value is inactive: 0%.

Q: For `COc1ccc(C(=O)N/C(=C/c2cccs2)C(=O)NN)cc1OC`, which “activity change, negative = cytotoxicity” value is on record?
A: Its value is inactive: -4.25%.

Q: With `Cc1ccccc1-n1ncc2c1CC(C)(C)CC2NC(=O)CCN1CCCCC1=O` (stereo unspecified) as the compound, how does the Potency read?
A: Its Potency is inconclusive: 0.366 µM [cytotoxic, full curve, poor fit].

Q: With `O=C1C(Cl)=C(N2CCCCC2)C(=O)C(Cl)=C1c1cnc(N2CCCCC2)s1` as the compound, how does the “activity change, negative = cytotoxicity” value read?
A: The value was inactive: -11.8%.

Q: For `O=C1NC[C@H](c2ccccc2)OC(=O)[C@H](Cc2ccc(F)cc2)CC/C=C/C[C@H]1CC(=O)N(CCO)Cc1ccccc1`, which Potency is on record?
A: The Potency was inconclusive: 29.1 µM [cytotoxic, single point].

Q: Which Potency does the source give for `C/C(=N\NC(=O)COc1ccccc1-c1ccccc1)c1ccccn1` here?
A: Its Potency is active: 4.11 µM.

Q: For `Cc1ccc(S(=O)(=O)Nc2ccc3[nH]c(=O)[nH]c3c2)c(C)c1`, which Potency is on record?
A: The Potency was inconclusive: 32.6 µM [cytotoxic, partial curve, poor fit].

Q: Which Potency does the source give for `CCOC(=O)CCCC(=O)N1CCOCCOCCN(C(=O)CCCC(=O)OCC)CCOCCOCC1` here?
A: Its Potency is inconclusive: 29.1 µM [rising, single point].

Q: With `Cc1cc2oc(=O)cc(CN3CCOCC3)c2cc1O` as the compound, how does the “activity change, negative = cytotoxicity” value read?
A: The value was inactive: 5%.

Q: With `COc1ccc(CN2C(=O)c3cccnc3C2=O)cc1S(=O)(=O)N1CC(C)Oc2ccccc21` (stereo unspecified) as the compound, how does the Potency read?
A: The Potency was inconclusive: 20.6 µM [rising, single point].

Q: With `CCOC(=O)c1cc(-c2csc(COc3ccccc3Cl)n2)on1` as the compound, how does the “activity change, negative = cytotoxicity” value read?
A: The value was inactive: 11.2%.

Q: Which Potency does the source give for `O=C(Oc1ccc(-c2cnc3ccccc3n2)cc1)c1ccc(Cl)c([N+](=O)[O-])c1` here?
A: Its Potency is inconclusive: 29.1 µM [cytotoxic, single point].

Q: For `CCN(C(=O)Cn1c(=O)n(Cc2ccc3c(c2)OCO3)c(=O)c2ccc(C(=O)NC3CCCCC3)cc21)c1cccc(C)c1`, which Potency is on record?
A: The Potency was inconclusive: 16.4 µM [rising, single point].

Q: Which “activity change, negative = cytotoxicity” value does the source give for `COc1ccc(OC)c(S(=O)(=O)N2CCN(Cc3nc4ccc(C)cc4o3)CC2)c1` here?
A: The value was inactive: 8.46%.

Q: For `CN1CCN(Cc2nc3ccccc3c(=O)n2Cc2nc(-c3ccc4ccccc4c3)cs2)CC1`, which Potency is on record?
A: Its Potency is active: 20.6 µM and inconclusive: 29.1 µM [cytotoxic, single point].

Q: For `O=C(CCCCCN1C(=O)c2ccccc2C1=O)Nc1cccc(O)c1`, which Potency is on record?
A: Its Potency is inconclusive: 1.64 µM [rising, full curve, poor fit].

Q: With `Cc1nc2cc(-c3cccs3)nn2c(NCC(C)(C)CN(C)C)c1C` as the compound, how does the “activity change, negative = cytotoxicity” value read?
A: Its value is inactive: -5.04%.

Q: For `Cc1ccccc1-c1nc(SCc2cccnc2)c2c(=O)n(C)c(=O)n(C)c2n1`, which Potency is on record?
A: Its Potency is inconclusive: 0.92 µM [cytotoxic, partial curve, poor fit].

Q: Which “activity change, negative = cytotoxicity” value does the source give for `COCCn1c(C)cc(/C=C(\C#N)C(=O)OC(C)C(=O)Nc2ccc(NC(C)=O)cc2)c1C` (stereo unspecified) here?
A: The value was inactive: 13.2%.

Q: For `COc1ccccc1NS(=O)(=O)c1cc(NC(=O)c2ccco2)ccc1N1CCOCC1`, which Potency is on record?
A: Its Potency is inconclusive: 18.4 µM [cytotoxic, partial curve].

Q: For `[O-]C1=N[N+](=C(c2ccccc2)c2ccccc2)C1`, which “activity change, negative = cytotoxicity” value is on record?
A: Its value is inactive: -3.18%.

Q: With `COC(=O)c1ccc(-n2c(/C=C/c3cc(OC)c(OC)c(OC)c3)nc3cc(Cl)ccc3c2=O)cc1` as the compound, how does the Potency read?
A: Its Potency is inconclusive: 29.1 µM [cytotoxic, single point].

Q: For `Cc1cc(C)cc(NC(=O)N2CCN(C(=O)c3nsc4ccccc34)CC2)c1`, which “activity change, negative = cytotoxicity” value is on record?
A: Its value is inactive: 0.0447%.

Q: With `CC(C)c1ccc(S(=O)(=O)N2CCN(C(=O)C3CCCC3)CC2)cc1` as the compound, how does the Potency read?
A: The Potency was inconclusive: 8.2 µM [cytotoxic, partial curve].

Q: Which Potency does the source give for `Cc1c(SCCO)c(=O)[nH]c2cc3c(cc12)OCO3` here?
A: Its Potency is inconclusive: 20.6 µM [cytotoxic, single point].

Q: With `CCNc1cc2c(cc1O)CCC1C2CCC2(C)C(O)CCC12` (stereo unspecified) as the compound, how does the Potency read?
A: The Potency was inconclusive: 4.61 µM [cytotoxic, partial curve].

Q: For `C/C(=N\NC(=O)c1cccc(S(=O)(=O)N2CCOCC2)c1)c1ccc(O)cc1`, which “activity change, negative = cytotoxicity” value is on record?
A: Its value is inactive: 0%.

Q: With `Cc1ccc(C)c(S(=O)(=O)N2CCCCC2CCNC(=O)C(=O)NCc2ccncc2)c1` (stereo unspecified) as the compound, how does the Potency read?
A: The Potency was active: 2.31 µM.

Q: For `CC(C)C(=O)Nc1ncc(Cc2cccc(Cl)c2)s1`, which Potency is on record?
A: Its Potency is inconclusive: 18.4 µM [cytotoxic, single point].

Q: With `COc1ccc(OC)c2c1cc(C(=O)N[C@@H](C)C(=O)N[C@@H](C(=O)O)c1ccccc1)n2C` as the compound, how does the Potency read?
A: Its Potency is inconclusive: 29.1 µM [rising, single point].
